Experiment [1] addresses T1, C-terminally tagged T18-TrxA (BACTH fusion) (Synechocystis) (UniProt P52231).
T1 sequence: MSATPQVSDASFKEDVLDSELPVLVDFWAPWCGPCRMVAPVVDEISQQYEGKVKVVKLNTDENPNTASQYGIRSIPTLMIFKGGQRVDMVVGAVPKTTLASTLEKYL
Put plainly: two-hybrid.

The chains behind the UniProt entries cited, without tags or fusion partners. Where a name states a change or a piece, a line headed by the entry shows the natural chain unless it says otherwise.
UniProt P73954: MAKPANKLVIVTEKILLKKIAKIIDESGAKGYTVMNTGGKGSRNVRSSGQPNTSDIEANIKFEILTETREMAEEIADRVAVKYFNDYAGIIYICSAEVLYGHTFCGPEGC

Experiment [2] has as its target T2, recombinant N-terminal His6-tagged TrxA protein encoded by slr0623 (Synechocystis) (UniProt P52231).
T2 sequence: T1 sequence
Nature of the experiment: pull-down.

No constants are given. Whether binding was seen depends on the method and setting. A result given as binding can be weak or reduced; the word gives no strength. Sequences can lack the tags named with a protein.

As to “N-terminal T25-SbtB-[C105A+C110A] fusion (BACTH) (from UniProt P73954)”, the binding result in experiment [1] is “binds weakly”.

For the substance “N-terminal T25-SbtB-Δ104 (BACTH fusion) (from UniProt P73954) (domain or fragment)”, in experiment [1], the binding entry is given as “no binding”. As to “C-terminal StrepII-tagged ScSbtB C105A+C110A variant (from UniProt P73954)”, the binding entry in experiment [2] was “binds weakly”.

(Values after publication doi:10.1101/2022.05.18.492403.)
